13 substances from patent US6399568B1 (Japan Energy Corporation, priority 1997, dated 2002) can be followed below.

Data set [1] can be described thus: general procedure: peptide synthesis; oxime resin (OxR); DCC/HOBt; HATU (cyclisation, double coupling); BOP.
The nature of data set [2]: Boc solid-phase peptide synthesis; oxime resin; DCC/HOBt; HATU (cyclisation, double coupling); BOP. Particulars: whole synthesis.

As for cyclo(-Asu(OBzl)-Phe-Phe-D-Pro-), in data set [1] (cyclisation step), the cyclisation yield is recorded as 84%.

In turn, cyclo(-L-Lys(BrAc)-L-Phe-L-Phe-D-Pro-) came in with a step yield in data set [1] (late stage modification step) of 62%. For cyclo(-L-Asu(OBzl)-D-Phe-L-Phe-L-Pro-), in data set [2], the crude yield is reported as 38%. For H-Asu(OBzl)-Phe-Phe-D-Pro-OH.TFA, the step yield in data set [1] (late stage modification step) was 90%. Take Boc-L-Ala-D-Ala-Asu(OBzl)-D-Pro-OtBu: in data set [1] (coupling step), the step yield came to 69%. Substance cyclo(-L-ASu-L-LyS(Boc)-L-Phe-D-Pro-) yielded a step yield in data set [1] (late stage modification step) of 74%. Substance “Boc-L-Asu(OBzl)-L-Lys(Z)-L-Phe-D-Pro-OtBu” gave a step yield in data set [1] (coupling step) of 72%. In data set [1] (coupling step), “Boc-D-Tyr(Me)-L-Ile-D-Pro-L-Glu(Gly-OBzl)-OAll” returned a step yield of 79%.

“H-L-Ile-L-Pro-L-Asu(OBzl)-D-Tyr(Me)-OH TFA” showed a step yield in data set [1] (late stage modification step) of 90%. The same measure, in the same setting: next, cyclo(-L-Asu(NHOH)-D-Phe-L-Phe-L-Pro-): 10%; cyclo(-Asu(OH)-Phe-Phe-D-Pro-): 91%. In data set [2], “cyclo(-L-Asu(NHOH)-D-Tyr(Me)-L-Ile-L-Pro-)” showed an isolated yield of 50%. Boc-Asu(OBzl)-Phe-Phe-D-Pro-OtBu came in with a step yield in data set [1] (coupling step) of 80%.
